Measurements as given in article PMC12478159.
Results are given in words; binding and its absence hold for the method and conditions named. Binding seen in cells or lysates may run through a third protein. These calls come from enrichment with a bait or labelling near it, and not all partners need be listed.

By UniProt entry, the sequences of proteins in these tests, tags left out. Residues count along the entry.
UniProt Q6RJQ3, residues 26-338: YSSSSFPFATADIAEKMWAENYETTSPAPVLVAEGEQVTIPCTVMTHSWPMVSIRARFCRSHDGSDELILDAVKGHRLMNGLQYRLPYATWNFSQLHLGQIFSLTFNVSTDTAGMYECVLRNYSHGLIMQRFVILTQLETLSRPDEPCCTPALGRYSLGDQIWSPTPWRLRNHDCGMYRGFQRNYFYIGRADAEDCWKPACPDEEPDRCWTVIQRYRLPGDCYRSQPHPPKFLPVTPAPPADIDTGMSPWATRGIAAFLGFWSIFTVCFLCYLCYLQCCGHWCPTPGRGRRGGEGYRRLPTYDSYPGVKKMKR
UniProt Q6SW67, residues 24-742: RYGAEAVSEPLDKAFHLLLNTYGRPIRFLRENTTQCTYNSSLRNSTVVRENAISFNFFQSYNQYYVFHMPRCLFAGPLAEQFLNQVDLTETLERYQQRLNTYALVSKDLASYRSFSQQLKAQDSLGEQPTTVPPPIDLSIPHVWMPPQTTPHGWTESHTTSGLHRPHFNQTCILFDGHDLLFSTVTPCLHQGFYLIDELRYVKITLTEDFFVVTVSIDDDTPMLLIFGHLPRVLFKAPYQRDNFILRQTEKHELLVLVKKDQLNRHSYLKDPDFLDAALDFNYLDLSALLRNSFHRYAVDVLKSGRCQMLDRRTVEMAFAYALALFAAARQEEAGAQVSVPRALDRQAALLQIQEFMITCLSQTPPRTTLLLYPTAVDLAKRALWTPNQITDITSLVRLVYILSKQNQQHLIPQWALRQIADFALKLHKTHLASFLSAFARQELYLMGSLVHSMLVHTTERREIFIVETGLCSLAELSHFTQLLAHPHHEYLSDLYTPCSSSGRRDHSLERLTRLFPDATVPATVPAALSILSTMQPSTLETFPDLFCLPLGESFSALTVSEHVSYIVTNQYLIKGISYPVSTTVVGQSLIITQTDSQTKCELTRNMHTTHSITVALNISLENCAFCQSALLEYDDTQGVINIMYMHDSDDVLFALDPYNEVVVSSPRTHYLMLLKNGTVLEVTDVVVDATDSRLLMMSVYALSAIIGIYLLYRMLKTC
UniProt F5HCH8, residues 31-278: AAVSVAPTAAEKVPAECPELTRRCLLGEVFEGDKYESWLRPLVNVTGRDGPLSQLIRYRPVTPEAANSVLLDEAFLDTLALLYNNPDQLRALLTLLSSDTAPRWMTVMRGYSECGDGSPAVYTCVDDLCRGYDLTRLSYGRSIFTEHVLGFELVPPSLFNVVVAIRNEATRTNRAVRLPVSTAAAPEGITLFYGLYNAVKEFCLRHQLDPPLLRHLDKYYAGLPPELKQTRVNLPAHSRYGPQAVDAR
UniProt F5HB53, residues 25-907: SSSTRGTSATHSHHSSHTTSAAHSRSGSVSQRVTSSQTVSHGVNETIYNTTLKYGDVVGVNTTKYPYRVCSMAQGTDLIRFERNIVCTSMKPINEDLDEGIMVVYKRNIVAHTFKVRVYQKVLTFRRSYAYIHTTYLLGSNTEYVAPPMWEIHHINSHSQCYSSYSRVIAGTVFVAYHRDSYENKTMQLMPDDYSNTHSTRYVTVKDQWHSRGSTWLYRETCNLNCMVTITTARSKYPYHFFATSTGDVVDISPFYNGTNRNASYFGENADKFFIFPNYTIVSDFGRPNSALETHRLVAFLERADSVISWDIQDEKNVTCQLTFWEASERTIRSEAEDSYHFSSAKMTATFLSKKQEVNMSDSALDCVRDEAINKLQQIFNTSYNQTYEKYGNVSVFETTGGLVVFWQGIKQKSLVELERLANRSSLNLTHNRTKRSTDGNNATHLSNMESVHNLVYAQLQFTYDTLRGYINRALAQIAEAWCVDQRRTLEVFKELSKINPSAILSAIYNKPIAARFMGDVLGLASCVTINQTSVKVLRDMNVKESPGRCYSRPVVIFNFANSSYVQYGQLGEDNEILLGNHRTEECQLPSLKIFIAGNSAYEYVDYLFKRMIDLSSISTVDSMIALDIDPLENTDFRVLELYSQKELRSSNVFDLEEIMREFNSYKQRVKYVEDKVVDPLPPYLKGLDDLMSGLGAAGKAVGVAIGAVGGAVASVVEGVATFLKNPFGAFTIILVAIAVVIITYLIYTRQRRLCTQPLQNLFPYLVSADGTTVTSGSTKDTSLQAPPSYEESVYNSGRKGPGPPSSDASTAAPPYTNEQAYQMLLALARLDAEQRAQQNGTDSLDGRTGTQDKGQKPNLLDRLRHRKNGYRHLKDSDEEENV

Biological target: gpUL141 with a C-terminal V5 tag, expressed from HCMV strain Merlin (Human cytomegalovirus (HCMV) strain Merlin) (UniProt Q6RJQ3)
Test: affinity purification with mass spectrometry; SILAC-IP: purified cell-free strain Merlin virions lacking UL128L, with gpUL141-V5 (Medium) or deleted for UL141 (Heavy), grown in HFFF; IP with a V5 antibody, MS, ratio between the two samples

Row | Substance | binding
1 | gH, from HCMV strain Merlin (from UniProt Q6SW67 24-742) | binds
2 | gL, from HCMV strain Merlin (from UniProt F5HCH8 31-278) | binds
3 | gB, from HCMV strain Merlin (from UniProt F5HB53 25-907) | binds
